PubChem BioAssay AID504764 | Drosophila RNAi Screening Center, 2011

Test: 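Genes whose knock-down alters Notch-dependent transcription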 (primary screen)
System: Drosophila Kc167 cells
Reagent: long dsRNA against Drosophila genes
Timing: about 5 days (4 days dsRNA, then 24 h after transfection)
Challenge: transfection of constitutively active membrane-tethered Notch lacking the extracellular domain, read 24 h later
Detection: 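Light from a Notch-responsive E(spl)m3 luciferase reporter under active Notch, with control-promoter and no-Notch reporter wells to normalise; raw counts from paired wells a and b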
Direction: induced reporter light, run 1, well a and induced reporter light, run 1, well b: higher = more light from the Notch target reporter with active Notch; control promoter light, run 1, well a and control promoter light, run 1, well b: higher = more light from the viral control promoter (cell number, transfection, viability); uninduced reporter light, run 1, well a: higher = more light from the Notch target reporter without active Notch
Call rule: 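Wells with low control signal or poorly matching duplicates excluded; duplicates averaged; per source plate, z beyond ±2 for induced/control log2 ratio or beyond ±1.8 for induced/uninduced marks a hit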
Meaning of the calls: active = modifier hit (raised or lowered Notch signal); inactive = not a hit
The deposit covers about 22,000 reagents; this is a random part of those with a known target gene and a result. In the full data, 403 (1.9%) were called active. 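Unnormalised raw counts per well; ratio z-scores behind the hit calls and whether each hit raises or lowers signal are not deposited.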 Entries without a mark were called inactive. The numbers tell different reagents against one gene apart. The record does not give: the amount of reagent.

target,dsRNA no.,"induced reporter light, run 1, well a","induced reporter light, run 1, well b","control promoter light, run 1, well a","control promoter light, run 1, well b","uninduced reporter light, run 1, well a"
CG9933,1,1.30e5,1.54e5,1.46e5,1.49e5,13200
boca,1,1.63e5,1.22e5,2.10e5,1.79e5,12830
Theg (Testicular haploid expressed gene),1,1.68e5,1.83e5,2.60e5,2.67e5,16655
Rab8,1,1.22e5,1.09e5,69295,1.19e5,8725
Paics (PAICS bifunctional enzyme),1,1.71e5,1.87e5,2.19e5,2.16e5,12845
CG3323,1,1.12e5,1.31e5,1.69e5,2.59e5,9460
Spg7 (Paraplegin),1,1.01e5,87435,1.38e5,1.70e5,8465
CG34273,1,1.53e5,1.17e5,1.97e5,1.61e5,10370
CCAP-R (Crustacean cardioactive peptide receptor),1,1.73e5,1.75e5,1.99e5,1.77e5,12345
CCAP-R (Crustacean cardioactive peptide receptor),2,1.45e5,1.32e5,1.65e5,1.87e5,12000
grass (Gram-positive Specific Serine protease),1,1.27e5,1.22e5,2.32e5,2.02e5,14138
Irp-1B (Iron regulatory protein 1B),1,89565,74580,68830,65720,5475
Remo (Remoulade),1,1.17e5,1.02e5,1.62e5,1.45e5,8120
mip130 (Myb-interacting protein 130),1,26455,27630,44305,53525,2442
CG9500,1,1.59e5,1.35e5,1.60e5,1.78e5,8495
CG17298,1,1.73e5,1.41e5,1.64e5,1.41e5,10478
CG18538,1,39710,36875,51810,42900,4465
SmD3 (Small ribonucleoprotein particle protein SmD3),1,39955,44225,61035,61195,3910
Svil (Supervillin),1,2.52e5,2.02e5,2.16e5,2.06e5,16665
Svil (Supervillin),2,86220,83040,1.46e5,1.69e5,7885
Svil (Supervillin),3,85660,99260,1.21e5,1.39e5,8535
Svil (Supervillin),4,7435,5735,14160,12805,2040
Svil (Supervillin),5,95835,1.29e5,1.40e5,1.14e5,7240
Bap170 (Brahma associated protein 170kD),1,78820 (active),79425,58485,68480,3980
DIP-eta (Dpr-interacting protein eta),1,1.36e5,1.53e5,1.45e5,1.27e5,8015
SsRbeta (Signal sequence receptor beta),1,1.19e5,1.07e5,69255,72250,7975
p-cup (presidents-cup),1,46340,40830,42775,35880,7170
Zir (Zizimin-related),1,98855,2.08e5,1.93e5,2.02e5,18185
Osi18 (Osiris 18),1,66260,77955,75810,72820,5420
RpL12 (Ribosomal protein L12),1,57155,52755,41895,49280,3975
CG14273,1,1.24e5,1.52e5,74335,99860,17465
CG34129,1,1.40e5,1.65e5,1.70e5,1.82e5,14240
SCCRO4 (Squamous cell carcinoma-related oncogene 4),1,92690,86290,99600,84760,5220
ALiX (ALG-2 interacting protein X),1,63990,79285,81460,87020,4630
CG15093,1,90130,1.00e5,1.54e5,1.72e5,7092
brv2 (brivido-2),1,1.72e5,2.04e5,2.63e5,1.85e5,7565
CG31533,1,1.18e5,92350,1.25e5,1.08e5,8010
XNP,1,2.55e5,2.21e5,3.13e5,2.86e5,15400
CG14957,1,62625,50835,85935,1.26e5,4750
slx1 (nuclease slx1),1,1.07e5,1.12e5,97155,93650,6310
Girdin,1,1.48e5,1.43e5,3.02e5,2.38e5,7838
Cht4 (Chitinase 4),1,44245,51615,72355,82955,2925
CG15742,1,2.01e5,1.48e5,2.21e5,2.16e5,11880
CG6454,1,1.61e5,1.62e5,2.19e5,2.18e5,15150
Synd (Syndapin),1,2.19e5,2.05e5,2.49e5,2.81e5,13335
Pp2C1 (Protein phosphatase 2C),1,1.62e5,1.07e5,1.84e5,1.77e5,12690
Lerp (lysosomal enzyme receptor protein),1,58375,59645,44140,46205,9792
Lerp (lysosomal enzyme receptor protein),2,1.67e5,1.55e5,2.76e5,2.28e5,15855
Lerp (lysosomal enzyme receptor protein),3,1.69e5,1.51e5,2.19e5,1.91e5,15425
Lerp (lysosomal enzyme receptor protein),4,1.67e5,1.30e5,1.73e5,1.69e5,11878

Reprinted from the listing, 2 entries:
target,dsRNA no.,"induced reporter light, run 1, well a","induced reporter light, run 1, well b","control promoter light, run 1, well a","control promoter light, run 1, well b","uninduced reporter light, run 1, well a"
p-cup (presidents-cup),1,46340,40830,42775,35880,7170
Zir (Zizimin-related),1,98855,2.08e5,1.93e5,2.02e5,18185
